PubChem BioAssay AID2685 (National Center for Advancing Translational Sciences (NCATS), 2010)
The other results are listed elsewhere or left out. Further columns of the screen follow, without active or inactive calls. Most of these compounds were active or inconclusive in the main read-out, so they are no random draw. Words in brackets tell the shape of the fitted curve; partial curves, single points and poor fits give uncertain potencies.

Experiment: qHTS Assay for Lipid Storage Modulators in Drosophila S3 Cells;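 for cell number change: cells counted by Cell Tracker Red CMTPX staining in the red channel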
Settings: BODIPY lipid droplet fluorescence, 18-24 h; for cell number change: measured here: cell count max response, cells fed with added oleic acid
Outline: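 Drosophila S3 cells loaded with oleic acid (400 uM, as added) and compounds at several concentrations; lipid droplets imaged by 488-nm laser-scanning cytometry, 500–530 nm intensity and object ratio to cell channel. Percent activity normalized to 20 uM Triacsin C.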

[1] = measured here: lipid fluorescence (Fed channel) AC50, cells fed with added oleic acid
[2] = measured here: cell number channel AC50, cells fed with added oleic acid

Structure (SMILES)	cell number change	AC50 [1]	AC50 [2]
COc1ccc(CCNc2nc(-c3sc(N)nc3C)cs2)cc1OC	-6.71%	2.91 µM [rising, partial curve]	
COc1cccc(/C=C/C(=O)OCC(=O)N2CCN(S(=O)(=O)c3ccc(Cl)cc3)CC2)c1	10.2%	1.46 µM [rising, full curve, poor fit]	
Cc1ccc(NC(=O)C2CCN(S(=O)(=O)c3c(C)noc3/C=C/c3ccco3)CC2)nc1	2.11%	16.4 µM [rising, single point]	
O=C(CSc1nnnn1-c1ccc2c(c1)CCC2)Nc1ccc2c(c1)OCCO2	-37.8%		16.4 µM [falling, single point]
CCOC(=O)COc1ccccc1/C=N/O	-12.5%	32.6 µM [falling, single point]	
O=C1OC(COc2ccc(Br)cc2)CN1c1ccccc1 (stereo not given)	2.18%	0.116 µM [rising, full curve, poor fit]	
Cc1cc(C(=O)Nc2cc(C(F)(F)F)ccc2N2CCOCC2)no1		0.58 µM [rising, single point]	
O=C(O)c1ccc2c3n(nc2c1)-c1ccc(Cl)cc1CO3	19.8%		
O=C(Nc1ccc(Cl)cc1)[C@@H]1[C@@H]2C(=O)N(c3ccc4ccccc4c3)C(=O)[C@@H]2[C@H]2C=CC=NN21	50.3%	6.51 µM [falling, single point]	29.1 µM [rising, single point]
C=CCn1c(SCC(=O)c2c(N)n(C3CC3)c(=O)[nH]c2=O)nnc1-c1ccccc1OC	-37.4%		2.06 µM [falling, single point]
CCNc1ccc(S(=O)(=O)N(C)C)cc1NCC(=O)Nc1ccccc1F	34.9%	6.51 µM [rising, single point]	9.2 µM [rising, partial curve]
Cc1nc2c3cc(Cl)ccc3n(CCN3CCOCC3)c2s1	-25%	1.46 µM [rising, full curve, poor fit]	
NC(=O)c1ccc(NC(=O)CCc2nc3sc4c(c3c(=O)[nH]2)CCCC4)cc1	15.6%	29.1 µM [falling, single point]	
CC(C(=O)Nc1ncc([N+](=O)[O-])s1)N1C(=O)c2ccccc2S1(=O)=O (stereo not given)	-8.82%	23.1 µM [falling, partial curve]	
Cc1ccc(C2CC(C(F)(F)F)n3nc(C(=O)Nc4c(C)n(C)n(-c5ccccc5)c4=O)cc3N2)cc1 (stereo not given)	36.4%		4.61 µM [rising, full curve]
CCOC(=O)N1CCN(C(=O)COC(=O)C2CCN(S(=O)(=O)c3c(Cl)cccc3Cl)CC2)CC1	-25.2%	29.1 µM [falling, single point]	0.651 µM [falling, full curve, poor fit]
CCCN1CCN(CCCNC(=O)C(CC)n2nc(C)c3sc4ccccc4c3c2=O)CC1 (stereo not given)	-0.885%	29.1 µM [rising, single point]	
CCOC(=O)C1(Cc2cccc(F)c2)CCN(CCCn2cccn2)CC1	12.7%		
O=C(O)c1ccc2c(c1)C(=O)N([C@@H](Cc1ccc(O)cc1)C(=O)O)C2=O	2.14%	25.9 µM [falling, single point]	

Gathered by group: the entries above containing a thiophene ring, fused or not.
Structure (SMILES)	cell number change	AC50 [1]	AC50 [2]
NC(=O)c1ccc(NC(=O)CCc2nc3sc4c(c3c(=O)[nH]2)CCCC4)cc1	15.6%	29.1 µM [falling, single point]	
CCCN1CCN(CCCNC(=O)C(CC)n2nc(C)c3sc4ccccc4c3c2=O)CC1 (stereo not given)	-0.885%	29.1 µM [rising, single point]	

(further entries)

Structure (SMILES)	cell number change	AC50 [1]	AC50 [2]
Cc1nn(-c2ccccn2)c2c1C(c1ccncc1)C1=C(CC(C)(C)CC1=O)N2 (stereo not given)		2.31 µM [rising, partial curve]	1.16 µM [rising, partial curve]
Cc1cc2ncc(-c3ncc(C(F)(F)F)cc3Cl)cn2n1	31%		6.51 µM [rising, partial curve, poor fit]
COC(=O)c1ccc2c(=O)n(CCN3CCOCC3)c(SCC(=O)c3ccccc3)nc2c1	11.8%	16.4 µM [rising, single point]	
COc1ccc2c3n([n+]([O-])c2c1)CCN=C3c1cc(Cl)c(N)c(Cl)c1	19.5%	0.00651 µM [rising, full curve, poor fit]	
CCc1nn(CC(=O)NCCc2ccc(Cl)cc2)c(=O)c2cccn12	-2.36%	6.51 µM [rising, partial curve]	
CCN1C(=O)[C@H]2[C@@H](c3ccc(-c4ccc(Cl)c(Cl)c4)cc3)N[C@@](CC(C)C)(C(=O)OC)[C@H]2C1=O	1.45%	0.0731 µM [falling, partial curve, poor fit]	
COc1ccccc1NS(=O)(=O)c1ccc2oc(SC)nc2c1	-1.28%	6.51 µM [rising, partial curve]	
CCn1c2c(c(=N)c3ccccc31)CCC2	-7.37%		
Cc1cnc(NC(=O)CCCNC(=O)c2ccc(Cl)cc2)s1	-17.9%	0.0259 µM [falling, full curve]	
COc1cc(-c2cn[nH]c2N)cc(OC)c1OC	29.5%	0.731 µM [falling, single point]	3.66 µM [rising, full curve, poor fit]
CCNNC(=O)C(O)(c1cccc(C)c1)c1cccc(C)c1	10.1%	0.461 µM [rising, full curve, poor fit]	
CCn1cc(C(=O)O)c(=O)c2cnc(N3CCN(C(=S)NC(=O)c4ccc(Cl)cc4Cl)CC3)nc21	-5.71%	6.51 µM [rising, single point]	
CN1CCN(NC(=O)c2ccc(F)cc2)CC1		0.291 µM [falling, full curve, poor fit]	
Cc1ccc(CSCCNC(=O)CN2C(=O)c3ccccc3S2(=O)=O)cc1	-4.19%		
O=C(O)C/C(=C\c1cc(Br)cs1)c1nc2ccccc2o1	22.9%		
Cc1nn(-c2ccc(Cl)cc2)c(N)c1C(O)(CSc1nccn1C)C(F)(F)F (stereo not given)	71.4%	5.17 µM [rising, single point]	1.64 µM [rising, full curve]
COc1ccc(-n2c(SCC(=O)Nc3ccccc3)nnc2-c2ccc(NS(=O)(=O)c3ccc(C)cc3)cc2)cc1			1.03 µM [rising, full curve, poor fit]
COCCCNC(=S)N1CCN(c2nc(C)nc3sc4c(c23)CCCC4)CC1	-0.702%		
